Laboratory results: PMC10127613 (mBio, 2023)

Molecular target: T1, Clr (Sinorhizobium meliloti) (UniProt Q92SD2)
T1 sequence (looked up): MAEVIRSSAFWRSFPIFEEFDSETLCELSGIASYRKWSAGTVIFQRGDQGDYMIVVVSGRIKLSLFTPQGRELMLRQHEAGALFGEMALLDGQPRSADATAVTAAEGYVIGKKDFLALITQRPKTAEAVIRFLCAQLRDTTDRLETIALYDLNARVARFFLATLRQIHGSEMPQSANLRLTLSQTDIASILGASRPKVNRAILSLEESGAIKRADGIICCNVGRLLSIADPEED
Experiment: EMSA
Settings: 1 mM cAMP, EMSA: 2 mM HEPES pH 7.0, 30 mM NaCl, 50 mM KCl, 850 ng salmon sperm DNA, 1 ug BSA, 20 ng Cy3-DNA, 3 ug Clr in 10 uL, room temperature, recombinant protein, residues 1-234, protein details: C-terminal His6 (pET36b, NdeI/XhoI), label: 5'-Cy3 on reverse strand

| Sequence | binding result |
| --- | --- |
| AGCGGATAACAATTTCACACAGGAAACAGCATATGACCATGATTACGCCAAGCTCGAAATTAACCCTCACTAAAGGGAACAAAAGCTGGAGCTCTTAAGCTTCGAAATCACGCGCCAAACCGAGTTTCTGCAGCGACTTTTGCGCGCCTCCAAAGTCGTGGGTGCGCTACAAAGCACATCGTTCATTCTACCGAATGCGAAAAGGCAGAATATGTTCCACGCCCCTCGCGACCCATATATGGGCAACACTCAATCAGAAGGCGCAGTTTCCTTCGAAGCCCGGTCTTCATTTTCCGAGTTGTCACATCCGGAACAGCGAGGCCGCGTGAAAGGCCCTTTTATCTAGATGTTCTCATATGGGTGAGATCATGCTAATTTTCTCGTTTCTCGGAGGGGAAACCGATGCCACGTATTACTAGACTGCAGATGGTGAGCAAGGGCGAGGAGCTGTTCA (double strand) [SMc04190] | binds |
| AGCGGATAACAATTTCACACAGGAAACAGCATATGACCATGATTACGCCAAGCTCGAAATTAACCCTCACTAAAGGGAACAAAAGCTGGAGCTCTTAAGCTTCGATCAGCCGGACCTTCGATCCGCGCTTTTCAGCGATCCTAAAGACGCGGGCCGCGGGGCCGCCCTGAGCGCTAACGGCGTGGCGAATCGCTCGCGAAAATACGGATTGTTATTCTTACTTGAAATATTGCCGATATAGCGCTTAAATGCGCACCAGTCGGCGGGATCACATTTAACTGCTGCATGATTATTTGATTGCGTCTGCAACATTTCGCAGGCGGCTACATTTTTATTTGCATACCATTTTTATTATTTAAAATCAGAGGGATTGCGATATGTCTCTTCCCCATCTAGACTGCAGATGGTGAGCAAGGGCGAGGAGCTGTTCA (double strand) [nodP2] | no binding |
| AGCGGATAACAATTTCACACAGGAAACAGCATATGACCATGATTACGCCAAGCTCGAAATTAACCCTCACTAAAGGGAACAAAAGCTGGAGCTCTTAAGCTTCGCAATCGTGAAGCCAAGGGCATGCGCCTTGCCCATGAAACCCGTCCCGATCAGGCCAATGCCCAGCCTGCGCTTGCCGCTCATCTCGTTTCTCCCGGGCCAGGCCCTCGTCTGTGCTCGGCGAAATGAAATGAAATGCGCGGGAATTGTCAATATGGAATATTTGTTCGAAAATCTGGTCCGCGTGCCTGATGGAACAGAGCGTACCCGCTCGGCCCGCTATGCTTGGGGAAGAATGTGTTAACGCATTTTTACCATGTTGCGTTGAAACATCACTGGTGACGGTGGTGGACGAATCGCTTTCATATGGTGGGGCGAAATCGGAGTGATCGAGCATGTGCCGTTGGGCAGCCTATTCTAGACTGCAGATGGTGAGCAAGGGCGAGGAGCTGTTCA (double strand) [SMc01162 / SMc01163] | binds more weakly |
| AGCGGATAACAATTTCACACAGGAAACAGCATATGACCATGATTACGCCAAGCTCGAAATTAACCCTCACTAAAGGGAACAAAAGCTGGAGCTCTTAAGCTTCGCCAGAAGCTCAGCTTTCTGCGCAGGCTGCGGCGGTCGGCAATGGCGAGTTCGTCCATGGGTGTCTCCGATTTTTGGTAAGGGGGTTCTGTCAGTTTCCCACGGAACATGCTATCTGCCTCAGCCGCGGCAAGCTAGGGTAGTCTGCAACGCGGCGCACGGGAATAGGCGCCGGGCCGACGCGAGTTGCTGCATGAAACCCCTTGGGGTTTGACGCGGCATGGAGTAGAGCATGCCCGGCGGAATGGAATATTGCGGCGGGATTGTCTTACAACGCAAAGTTTGCGCCGCTCCATTGCCGGGCGGCAGCAAGATAACCATATTCGCCGTGGCTTACGCCGATGTATGTATATGTGTCCCTCGGACTGCCCGAGGTCAGACGAAACTGACAGGCTCTTGATGCTGAACGAAGCCTCTAGACTGCAGATGGTGAGCAAGGGCGAGGAGCTGTTCA (double strand) [SMc01135 / SMc01136] | binds |
| AGCGGATAACAATTTCACACAGGAAACAGCATATGACCATGATTACGCCAAGCTCGAAATTAACCCTCACTAAAGGGAACAAAAGCTGGAGCTCTTAAGCTTCGCGACCTCGGACTTTCGATAGAGGCGATCCGGGACCTTCTGGCACTGAGCGAGCATCCGGAACGCCCCTGCGGCGAGGCGGACCGCATCGCCACCGAGCATCTTGCCTCCGTGCGGGAAAAGATCGCCCAGCTCAGAAGGCTGGAGCATGAGCTCGAGCGCATCGTCGCTTGCCATGGCGACCACACGATCGGCGATTGCTATGTGATCCGCGCGCTCGCCGACCACTCGCTGTGCGGAAACGAGCATTGAAATTCCTCGTTGACAAATTCCGGGATTTGGACAATCTACGCGCATGATCAAGAACGCGCCCATTTCCAGCGTATATTTTTGGCTGTTCCGATAGGAGCGGCCTGCTGATCATATTCAACAAGGCCGCCATCAGGCGGCTTTTGTTTTTCACGGCACCTGATGGCGGCAGAGAACCATCAGGAGCCGAGAATGTCTAGACTGCAGATGGTGAGCAAGGGCGAGGAGCTGTTCA (double strand) [SMc00108] | no binding |
| AGCGGATAACAATTTCACACAGGAAACAGCATATGACCATGATTACGCCAAGCTCGAAATTAACCCTCACTAAAGGGAACAAAAGCTGGAGCTCTTAAGCTTCGCGCGTTTGTCATCTTGGATTTATGGAGACGAAAACGGCCAGGCCAGCGGATCGCTAGCGAATAATGTTCCGGCAAATAATGCAGATAACCGTTTTCATGGCGACCCTTATCGCGCGTCGCCCGGCGCCGGTCAAGAGGCGAGCCACGTGCAAGCGAAAGTCGTCAATCTGCAACCATGACGGCCATGGATTTGTCACGATTTGGCTTATCTGGAAATCATCGGAGGGGAAGGAGATTCGCGAATGCAGCCGGATACTGCATCAGGTCCTGTTTCCCGAGGAACAACAGGGACATGGTTTTCGTTGAAAATTCACGAGGGCTAATGTTCCCAATAGGGAAAACACCAAGGAAGACATGCAATGAAGGCCGCCAAAATTGCCTCTAGACTGCAGATGGTGAGCAAGGGCGAGGAGCTGTTCA (double strand) [cysS / SMc02552] | binds |
| AGCGGATAACAATTTCACACAGGAAACAGCATATGACCATGATTACGCCAAGCTCGAAATTAACCCTCACTAAAGGGAACAAAAGCTGGAGCTCTTAAGCTTCGGTCGGTGGTTTTCCATCAATCGGAACCTGAACGCTGAAAGTGAAACGTGCCGCTTCCATAGCCTAGTCCACCTCGTCCTCTGCCATCGGCACAAGGCCGACGATGGGCAAAAACGGCATCGTAGAAGCGCTTCGAACGCCCAACATCATTCGTCCCTACCGAGACATGGTGGATCACAACTACCTGCGCTCCAGCTTTGTCCCTAGCGGCAGCTTCTGGTCATTGTTTCCTCAAAGCCGACTGTCGTTTGTTCACCACAAGATACAGCCTTGCTTTCATGTTGAACGGTAATTTATGTTGTGTTCAACACACGGAGGCTAGCATGCGTGCCCAAATCAGTTCCTCTAGACTGCAGATGGTGAGCAAGGGCGAGGAGCTGTTCA (double strand) [SMa1706 /SMa1711] | binds more weakly |
| AGCGGATAACAATTTCACACAGGAAACAGCATATGACCATGATTACGCCAAGCTCGAAATTAACCCTCACTAAAGGGAACAAAAGCTGGAGCTCTTAAGCTTCGTAACGGTGGCTTCCCGGCCGTTTCCTTTTAAAGTCGTGGTCTTGCCCGTTTCGAGCGGAAACTTCGTGAAGTTGGTCGTCCCGCCTGGAACGCCTGAACCGCCTGGACCGCCTGGACCGCCGGAGCCTCCTCCGCAGCCGGCCAGTGCCAGTGACGCTGCCAACAAAACCGAAAATCTGACTGTAACCGAAGAAGTCATTCCAATGCCCCTCAATGTGTTGCCTATTCCTGTAGTATTACCTCCAATCAAGGAGGCCAAACTGCAATAGAGAATGCCCTTTCCGATCGACGCATGCCGAAATTGCACTTTGGTGTTTCTACCGGGCTAATTTGTTCTCTCTGGAGAGAAACTTAGCTATACGGACCTTACGGGCGGGTCCTGTTGAGGCAATCACCCAAATGGGTGAGTGCTTGATTTTGTTGCCGGGCCTATGGGTTGGCAGACACGGGAGGGGCGAAGTGGACGACGCGGCATCGGAAGAATCTAGACTGCAGATGGTGAGCAAGGGCGAGGAGCTGTTCA (double strand) [SMc02493 / SMc02494] | binds more weakly |
| AGCGGATAACAATTTCACACAGGAAACAGCATATGACCATGATTACGCCAAGCTCGAAATTAACCCTCACTAAAGGGAACAAAAGCTGGAGCTCTTAAGCTTCGTCTGCAACCGAGAACATTCAGGTCTCGATTTTTGCTGGCCGTGCCGCGAAATCCGGGGTATTGTCAAGATCGTGACGCCCTTCGTTTTTGATGCGGGCGTATTGACATAGTACCTGCGACTTCATCTGCGCCGCGGCATGCCCGAGGGCGCTGGTTAAAGACAACGTGCTTGTGCAGCCGAAGTAGATCTGGGTAGCATTGAACTAATTCATTGCGCCTTATTCAATATTTTACTAAAGTAACAAAATATAGAAAATTTTTTAATATTAGCAGGTTTCCATGACGACATTCGTTCCCGATGGCTCTAGACTGCAGATGGTGAGCAAGGGCGAGGAGCTGTTCA (double strand) [SMb21240] | binds more weakly |
| AGCGGATAACAATTTCACACAGGAAACAGCATATGACCATGATTACGCCAAGCTCGAAATTAACCCTCACTAAAGGGAACAAAAGCTGGAGCTCTTAAGCTTCGTTCATCTTCGTCCTGCCCGGATCCCCCGGTGCCTGCAAGGACGCCTGGGACGGAATCCTGAAGCAGCAACTCGATTACCGGCACATGCCGTGCAATTTCGTCGAGATCATGCCGCGGCTCGACGAGCACCTGAAGCGCGGCTGACGAGATTCGTGTTCCGTTTGGAACAGACCCGCGCCCCGAATCCCGCTAGTTTGCCTTCGTCGGCTTGGCTCGAAGCGGGCAAGGCAAGCACCGTTTAATTGCATTAAAGAGGAGAAATCTAGAATGACTAGACTGCAGATGGTGAGCAAGGGCGAGGAGCTGTTCA (double strand) [SmelC181] | binds |
| AGCGGATAACAATTTCACACAGGAAACAGCATATGACCATGATTACGCCAAGCTCGAAATTAACCCTCACTAAAGGGAACAAAAGCTGGAGCTCTTAAGCTTCGTTCGGTGTTTTGTTCTGGCGAACATGATTTGTGTCCTCTGCGGGATTTAAAAGTGGGTCGGATCGGCAGTTTTTTTAGCTCGGGGAGTTTTCCGTCCCGACTCGCTTCTAGAAACAGAAACTCCCGCCGATATCAATGGTAAATAAATACACCGACATTGAGGCATTACTAAGTCACGAGACAAGAAGTTACAGAGAGGACGGAACAAGACGTTTATTTGTTCCAAATTAAATGTGCGGGAAGAATTTGATTCTTCTCGGAATTGGCGGTGCGGTAGCGTAAAAATGGCATCGAAATAATAGTATTTTCACATTTTTATCTTTAGGGAGCAGATGAAAAATCTGGATTGCAACTGTCTTCTGGTTAAAGAACAGGCCCCCATCACTAGACTGCAGATGGTGAGCAAGGGCGAGGAGCTGTTCA (double strand) [SMa1917 / SMa1918] | binds more weakly |

Negatives hold for the conditions tested. Protein sequences can lack the tags named with them. The comparison behind a weaker result is the experiment's own reference, which may not be listed here.
